# Test results published in the supplement of paper PMC8728848.
# Some of the results follow.
# Columns and labels:
# Assay in all cases: glycan array binding signal (z-score within array); higher = stronger binding
# Details in all cases: glycan notation: IUPAC condensed, linker removed
# [1] = target: Man(a1-2)Man(a1-3)[Man(a1-2)Man(a1-6)]Man(a1-6)[Man(a1-2)Man(a1-2)Man(a1-3)]Man
# Method in brief: (§1)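 Glycan array binding is given as a within-array Z-score, which can be read as non-binding when negative. The arrays, 3228 of them, came from the Consortium for Functional Glycomics database and were retained only where the protein sequence was available. Z-scores were averaged across arrays of the same protein sequence at different concentrations or buffers and across linkers.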
# [2] = target: Man(a1-2)Man(a1-3)[Man(a1-2)Man(a1-6)]Man(a1-6)[Man(a1-2)Man(a1-2)Man(a1-3)]Man(b1-4)GlcNAc(b1-4)GlcNAc
# Method in brief: as §1
# [3] = target: Man(a1-2)Man(a1-3)[Man(a1-6)]Man(a1-6)[Man(a1-2)Man(a1-3)]Man(b1-4)GlcNAc(b1-4)GlcNAc
# Method in brief: as §1
# [4] = target: Man(a1-2)Man(a1-6)[Man(a1-3)]Man(a1-6)[Man(a1-2)Man(a1-2)Man(a1-3)]Man
# Method in brief: as §1
# [5] = target: Man(a1-2)Man(a1-6)[Man(a1-3)]Man(a1-6)[Man(a1-2)Man(a1-2)Man(a1-3)]Man(b1-4)GlcNAc(b1-4)GlcNAc
# Method in brief: as §1
# Man(a1-3)[Man(a1-6)]Man = target: Man(a1-3)[Man(a1-6)]Man
# Method in brief: as §1
# [6] = target: Man(a1-3)[Man(a1-6)]Man(a1-6)[Man(a1-2)Man(a1-3)]Man(b1-4)GlcNAc(b1-4)GlcNAc
# Method in brief: as §1
# [7] = target: Man(a1-3)[Man(a1-6)]Man(a1-6)[Man(a1-3)]Man
# Method in brief: as §1
# [8] = target: Man(a1-3)[Man(a1-6)]Man(a1-6)[Man(a1-3)]Man(b1-4)GlcNAc(b1-4)GlcNAc
# Method in brief: as §1
# [9] = target: Man(a1-3)[Man(a1-6)]Man(b1-4)GlcNAc(b1-4)GlcNAc
# Method in brief: as §1
# [10] = target: Man(a1-3)[Man(a1-6)]Man(b1-4)GlcNAc(b1-4)[Fuc(a1-6)]GlcNAc
# Method in brief: as §1
# Man(a1-6)Man = target: Man(a1-6)Man
# Method in brief: as §1
# Man(b1-4)GlcNAc = target: Man(b1-4)GlcNAc
# Method in brief: as §1
# MurNAc(b1-4)GlcNAc = target: MurNAc(b1-4)GlcNAc
# Method in brief: as §1
# Neu5Ac(a2-3)Gal = target: Neu5Ac(a2-3)Gal
# Method in brief: as §1
# [11] = target: Neu5Ac(a2-3)Gal(b1-3)GalNAc
# Method in brief: as §1
# [12] = target: Neu5Ac(a2-3)Gal(b1-3)GalNAc(b1-3)Gal(a1-4)Gal(b1-4)Glc
# Method in brief: as §1
# [13] = target: Neu5Ac(a2-3)Gal(b1-3)GalNAc(b1-4)[Neu5Ac(a2-3)]Gal(b1-4)Glc
# Method in brief: as §1
# [14] = target: Neu5Ac(a2-3)Gal(b1-3)GalNAc(b1-4)[Neu5Ac(a2-8)Neu5Ac(a2-3)]Gal(b1-4)Glc
# Method in brief: as §1
# [15] = target: Neu5Ac(a2-3)Gal(b1-3)GalNAc6S
# Method in brief: as §1
# [16] = target: Neu5Ac(a2-3)Gal(b1-3)GlcNAc
# Method in brief: as §1
# [17] = target: Neu5Ac(a2-3)Gal(b1-3)GlcNAc(b1-2)Man
# Method in brief: as §1
# [18] = target: Neu5Ac(a2-3)Gal(b1-3)GlcNAc(b1-2)Man(a1-3)[GlcNAc(b1-4)][Neu5Ac(a2-3)Gal(b1-3)GlcNAc(b1-2)Man(a1-6)]Man(b1-4)GlcNAc(b1-4)GlcNAc
# Method in brief: as §1
# [19] = target: Neu5Ac(a2-3)Gal(b1-3)GlcNAc(b1-2)Man(a1-3)[Neu5Ac(a2-3)Gal(b1-3)GlcNAc(b1-2)Man(a1-6)]Man(b1-4)GlcNAc(b1-4)GlcNAc
# Method in brief: as §1
# [20] = target: Neu5Ac(a2-3)Gal(b1-3)GlcNAc(b1-3)Gal(b1-3)GlcNAc
# Method in brief: as §1
# [21] = target: Neu5Ac(a2-3)Gal(b1-3)GlcNAc(b1-3)Gal(b1-4)GlcNAc
# Method in brief: as §1
# [22] = target: Neu5Ac(a2-3)Gal(b1-3)GlcNAc(b1-3)GalNAc
# Method in brief: as §1
# [23] = target: Neu5Ac(a2-3)Gal(b1-3)GlcNAc(b1-4)Gal(b1-4)Glc
# Method in brief: as §1
# [24] = target: Neu5Ac(a2-3)Gal(b1-3)GlcNAc(b1-6)GalNAc
# Method in brief: as §1
# [25] = target: Neu5Ac(a2-3)Gal(b1-3)GlcNAc6S
# Method in brief: as §1
binder,measurement,setting,value
TAL6-6LysM (Trichoderma atroviride) (protein) AASKLGVPQPAQRDQVNCQLYAVQPNDNCIDISSKNNITYAQLLSWNPSLSSTCSNLASLNSSSICVSNPKGTFSISSNTVGATDIATTTAPVPSPTLDQTTSRCAKYYQVSDGDDCSHLTAQFAITLKDFIFLNSEVWQNCTNLELGYYYCVEPVGYISTYPGYLPTATTKPFNQTSATSLPYDGDPWARFSSNSSVIPIANGTRVDCYSYVYVKNLTENLFADCWNMASMYEITREELVLWNPSLGNDGSSGSNLSGAEASQVASSIAIPTTAPSSITTNLYTYPCTVAANISYCVALVSSTGALPTNTAPPGPHASGEISNCTAWFAPEAYDTCKSILDIFEMSFANFYKMNPSVGPDCSGLAVGTNYCVSTYPNGEDPNDDWDGDDSIPSISPTGIITPTPTQSGMVSNCNKFYDVHSNDGCSAIASSQHVDLSSLYKWNPAIKTDCSGLQASVYVCIGILTTSMSTTSKLPTTTSKPSTTSKPPTGITTPTPTQSGMVKNCNKFYDVHSGDGCSAIASSQKVNLSSFYLWNPAVKTDCSGLQASVFVCIGTLTTSMSTTTSKLPTTTSKPSTTSKPPTGIITPTPTQNGMVKNCNKFYDVHSGDGCSAIASSQKVNLSSFYLWNPAVKTDCSGLQASVFVCVGTATTTTAAGITTPTPTQSGMVSGCNKFYDVHAGDGCSAIASSQKIALSSLYKWNPAVKTDCSGLQASVYICIGVGNAAAARVTGAAASFLEQKLISEEDLNSAVDHHHHHH,glycan array binding signal (z-score),[1],-0.014
same,glycan array binding signal (z-score),[2],-0.42
same,glycan array binding signal (z-score),[3],-0.093
same,glycan array binding signal (z-score),[4],0.122
same,glycan array binding signal (z-score),[5],-0.099
same,glycan array binding signal (z-score),Man(a1-3)[Man(a1-6)]Man,-0.021
same,glycan array binding signal (z-score),[6],2.52
same,glycan array binding signal (z-score),[7],-0.726
same,glycan array binding signal (z-score),[8],0.136
same,glycan array binding signal (z-score),[9],-0.274
same,glycan array binding signal (z-score),[10],0.172
same,glycan array binding signal (z-score),Man(a1-6)Man,-0.108
same,glycan array binding signal (z-score),Man(b1-4)GlcNAc,0.53
same,glycan array binding signal (z-score),MurNAc(b1-4)GlcNAc,0.385
same,glycan array binding signal (z-score),Neu5Ac(a2-3)Gal,0.154
same,glycan array binding signal (z-score),[11],-1.43
same,glycan array binding signal (z-score),[12],-0.741
same,glycan array binding signal (z-score),[13],-0.8
same,glycan array binding signal (z-score),[14],-0.659
same,glycan array binding signal (z-score),[15],0.649
same,glycan array binding signal (z-score),[16],-0.539
same,glycan array binding signal (z-score),[17],0.461
same,glycan array binding signal (z-score),[18],0.807
same,glycan array binding signal (z-score),[19],-1.38
same,glycan array binding signal (z-score),[20],1.14
same,glycan array binding signal (z-score),[21],-0.457
same,glycan array binding signal (z-score),[22],2.37
same,glycan array binding signal (z-score),[23],0.273
same,glycan array binding signal (z-score),[24],-0.412
same,glycan array binding signal (z-score),[25],-0.031

# Quoted at random: 2 records from the list
binder,measurement,setting,value
TAL6-6LysM (Trichoderma atroviride) (protein) AASKLGVPQPAQRDQVNCQLYAVQPNDNCIDISSKNNITYAQLLSWNPSLSSTCSNLASLNSSSICVSNPKGTFSISSNTVGATDIATTTAPVPSPTLDQTTSRCAKYYQVSDGDDCSHLTAQFAITLKDFIFLNSEVWQNCTNLELGYYYCVEPVGYISTYPGYLPTATTKPFNQTSATSLPYDGDPWARFSSNSSVIPIANGTRVDCYSYVYVKNLTENLFADCWNMASMYEITREELVLWNPSLGNDGSSGSNLSGAEASQVASSIAIPTTAPSSITTNLYTYPCTVAANISYCVALVSSTGALPTNTAPPGPHASGEISNCTAWFAPEAYDTCKSILDIFEMSFANFYKMNPSVGPDCSGLAVGTNYCVSTYPNGEDPNDDWDGDDSIPSISPTGIITPTPTQSGMVSNCNKFYDVHSNDGCSAIASSQHVDLSSLYKWNPAIKTDCSGLQASVYVCIGILTTSMSTTSKLPTTTSKPSTTSKPPTGITTPTPTQSGMVKNCNKFYDVHSGDGCSAIASSQKVNLSSFYLWNPAVKTDCSGLQASVFVCIGTLTTSMSTTTSKLPTTTSKPSTTSKPPTGIITPTPTQNGMVKNCNKFYDVHSGDGCSAIASSQKVNLSSFYLWNPAVKTDCSGLQASVFVCVGTATTTTAAGITTPTPTQSGMVSGCNKFYDVHAGDGCSAIASSQKIALSSLYKWNPAVKTDCSGLQASVYICIGVGNAAAARVTGAAASFLEQKLISEEDLNSAVDHHHHHH,glycan array binding signal (z-score),[3],-0.093
same,glycan array binding signal (z-score),[15],0.649
